107 sequences from PubChem BioAssay AID1508600 (Functional Genomics Laboratory (NCATS/FGL), 2020) can be followed below.

Screen size: about 53,000 sequences; about 3,700 (7%) were called active.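 How the source made its calls: active means gene knockdowns whose robust z-score for IL-1 alpha signal is at least 2 or at most -2, so actives lie on both sides; inactive means the rest.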 The list shows a part of the results.

The experiment can be described thus: Components of the Cytosolic LPS Sensing Pathway: Gene Identification via Genome-wide siRNA Screen.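 Further: robust z of the log signal after scaling to non-targeting control siRNA wells of the plate.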 The following applies: RAW264.7 macrophages, IL-1a HTRF, actives lie on both sides, screened at 100 nM (by protocol), cells primed 5 h with Pam3CSK4 first. The method, boiled down:
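Supernatant IL-1a by HTRF from RAW264.7 cells primed with Pam3CSK4 (5 hours) and transfected with LipidA (24 hour) after 48h siRNA knockdown at 100 nM; cell viability checked with CellTiter-Glo.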
On the technique in general: In TR-FRET formats the signal depends on donor and acceptor labels being close together.
In the case of GGCAGAAACCCUUCUAUGUTT against Bmp8a, the z-score is inactive: -1.55.

As for “GGGCAUUUCAUAAGCUACATT against 4932435O22Rik”, the z-score was inactive: -0.116.

On to GAAAUAUUACAGCGACUGUTT against Pantr1, for which the z-score is inactive: 0.369.

Regarding GGCCUUUGAGGUCUACAUATT against Icam2, the z-score is inactive: 0.323.

Turning to GGGAAGAAAAUAUGGAAAATT against Irf9, the z-score was inactive: -0.415.

ACAUUUAUCACGACCCUUCTT against Olfr777: the z-score is inactive: 1.3.

As for GGAUGUGGAAGAAUUUCUGTT against Mrpl49, the z-score was inactive: 0.289.

For GGAAGUGAUCCGAAAAUCATT against Mbd2, the z-score is inactive: 1.36.

As to GGAAACCAGAACAUCACUUTT against Olfr829, the z-score was inactive: -1.02.

Turning to GGAUCAUCUAUACAGCACATT against Tgfb1i1, the z-score is inactive: -1.85.

Turning to GCCUCUUCAUGUCAGUCCCTT against Capn12, the z-score is inactive: 1.92.

Regarding GGUCAGAAAAACAACCACGTT against Phxr5, the z-score was inactive: -1.59.

In the case of GGCUGAAUUUUGUGACUAUTT against Il18r1, the z-score was inactive: -1.86.

On to GGAACACCAACCAGAAUAATT against Serpina3n, for which the z-score was inactive: -0.994.

For the sequence GCCAACUCAGUUUUGAAUGTT against Lyrm1, the z-score was inactive: 0.831.

Turning to GGAAACCACUUGAUCAGCATT against Ube4a, the z-score was inactive: -1.48.

Take GGACAUCCUCAAGCUUCAUTT against Cib2: the z-score is inactive: -1.71.

With GGCUUCAGCAGAAAACUUCTT against Ola1, the z-score is inactive: 0.529.

For GGAGGAGCUCCUAAAGUGUTT against Bcat1, the z-score is inactive: -1.03.

As to GGGUUGUGCCUCACAGAUUTT against Olfr976, the z-score is inactive: 0.684.

Regarding CCACUACAAUGUAGCGACGTT against C1qtnf9, the z-score was active: -2.24.

For GGACCAAGCAAGAAGGUGGTT against Tatdn2, the z-score was inactive: -0.619.

Consider CCCUGAAAAUUAUCGAGCGTT against Galnt18, for which the z-score is inactive: -0.493.

Regarding GCUAAUGCUAGGUGUGAAATT against Caskin2, the z-score was inactive: -0.219.

As to GCCUAACAUUAACAUGUAATT against Srrm4, the z-score was inactive: -0.714.

On to GGGUGCAGUGGAGUCUAUUTT against Smc1a, for which the z-score was inactive: -1.31.

On to GGAUCAAAACUUAAAUGGUTT against Lancl1, for which the z-score is inactive: -0.0547.

For the sequence GGAAGACGUAAUAAAGUUATT against Iqcc, the z-score is inactive: -0.785.

With GGUCAGAAGAAAAGACAAATT against Gpatch4, the z-score is inactive: 0.5.

In the case of GGACAUUUCUAUGUCUUUGTT against Cpt2, the z-score was active: 3.35.

GCUGCUAAAGAGCAUUUUGTT against Fkbp11: the z-score was inactive: 0.131.

Take GGAUGAGGUGAUUAAAGAATT against Cd9: the z-score is active: 2.38.

Take GGCUUCUUGAGGAGAAAGATT against Trak1: the z-score is inactive: -0.0918.

Consider GGCUGUGGAAGUGCAGAACTT against Dnmt3a, for which the z-score was active: -2.53.

CGCAUCUCUAUCCACACUUTT against Dnal1: the z-score is inactive: 0.63.

On to GGCCAAGAGCAACUCACUGTT against BC048671, for which the z-score was inactive: 0.202.

With CCUAAUUGUCCUUCACAUGTT against Pfkfb2, the z-score is inactive: 1.4.

As to GCAGUUGCGUUCUAUUGAATT against Ccdc86, the z-score is inactive: 0.179.

Consider GACUUCUCUAGUCUGCCGGTT against Ankrd33b, for which the z-score is inactive: 1.91.

Take GCGAUUUCACACCAUCACATT against Rab10: the z-score is inactive: -1.03.

Take GCAAUUCAUCAGGAGCAGGTT against Rab8b: the z-score is inactive: 1.78.

For GGAUGAACAACUCUAGGCCTT against Mafk, the z-score was inactive: -0.736.

As to GGAAUACAUCGAAAUCAACTT against Gstt4, the z-score is inactive: -1.23.

On to GGAUUAUCAGAAGUGUGUCTT against Mrps35, for which the z-score was inactive: -0.117.

Regarding GCUACUUCAGCUAUUGAGGTT against Cd200r1, the z-score is inactive: -0.105.

Take GGCAUGGGAAUUAUUCCAATT against Kif5b: the z-score was inactive: 0.89.

Regarding GGUCAUGAUCAAGACACAUTT against Tmem63c, the z-score is inactive: 0.371.

For CCAUAGGAACUUCUACUCCTT against Mical2, the z-score was inactive: -1.58.

In the case of CGAGGCUAUUGACUUCAUATT against Dusp1, the z-score is inactive: 0.107.

Consider GAUCUCUGAAUUACGGAGUTT against Krtap13, for which the z-score was inactive: 0.796.

For the sequence “GGAACAGCAGCUUCCCUAATT against 4930555G01Rik”, the z-score is inactive: -0.0144.

As to GGAUUCAAGCAUCGGAUUGTT against Adamts6, the z-score is inactive: 1.11.

On to GCCUCUUCAGAUGGACCUATT against Tspan32, for which the z-score was inactive: -1.86.

In the case of GGGUCUGAUUGUCAAGGGATT against Me3, the z-score is inactive: -0.128.

As for GGCUUACCUUGGAUUUUAUTT against Rab36, the z-score was inactive: -1.31.

Turning to GGGUGAAUUUCAAAAGCUATT against Fbxo41, the z-score is inactive: 0.0699.

As for CCCUGAGUGCCGUAUGAUUTT against Ddb1, the z-score was inactive: -1.33.

As to GGUGAUGGAUGUGGACACATT against Dcbld2, the z-score is inactive: 0.554.

Turning to GGUGCUGGAGAACAUUAAATT against Panx1, the z-score is inactive: 0.451.

In the case of GCAUGCUAGGGAACCUGCUTT against Olfr1318, the z-score is inactive: -1.75.

As to GGACAGGUACUUUUCCCUGTT against Gnpda2, the z-score was inactive: -1.19.

Take GGAAGUGGAUGAGGAUUGATT against Purb: the z-score was inactive: -1.85.

Take GGUGCUCACAGUGAAGAAGTT against Ppm1h: the z-score is inactive: -1.33.

Take GCCUAUCAAUGUGUAUCUUTT against Tcf21: the z-score was inactive: -0.497.

With GCUGUACAAUUUUAGGAGGTT against Slc17a2, the z-score was inactive: 0.485.

Regarding GGAUGAAAAGUUAAAGCAUTT against Ppp1r7, the z-score is inactive: -1.4.

GGGCCUGCCAGUGUGAUAUTT against Gpha2: the z-score was inactive: 0.53.

With GGCUAAGCUGAAGAAGCACTT against Fam219b, the z-score is inactive: -0.326.

With GCCAAACGUGGGUUUGAUATT against Ccna1, the z-score is active: 4.74.

Consider CCUGGUGACAUCACUAAAATT against P4ha1, for which the z-score was inactive: -0.752.

Regarding GGAGAUUGUGGAAAUGCUUTT against Skiv2l, the z-score was inactive: 0.459.

Consider CGGAGCCAGUUGGUAAAGATT against Vps39, for which the z-score is inactive: -0.128.

As to GGUGUAUAGUUUUACACUCTT against Psen2, the z-score was inactive: -0.289.

For the sequence GGCAAAGAGUUUUGAUCAGTT against Calu, the z-score is inactive: -0.434.

GCUGUGUGUUGUUCAAUUGTT against Pdcd6ip: the z-score is inactive: 0.0624.

Consider CCCUGAGAAGGAUGCGAAATT against Mgat4b, for which the z-score was inactive: 0.44.

With GGGCAUGCUGCUUAUUGUGTT against Slc5a4b, the z-score is inactive: -0.8.

For CGACAUGGAAUGUUCACACTT against Metap2, the z-score is inactive: 1.03.

On to GGAGAAGCUAAGAAACGAGTT against Acyp2, for which the z-score is inactive: -0.696.

For the sequence GGCAUAGCACUUUUGUACCTT against Lancl2, the z-score was inactive: 0.327.

As to GGGAAACUCCAGUUCAAAGTT against Zbtb18, the z-score was inactive: -0.365.

Regarding GGUGUCUUUGCUCAGCUCATT against Lrfn4, the z-score was active: -2.93.

For GCACAACAUCACGGUGAACTT against Adcy5, the z-score was inactive: -0.672.

On to GGUGCAACAACACCACAUCTT against Mmp1a, for which the z-score was inactive: -0.382.

Consider GUUUUUCUGGGCAAUUUUATT against Olfr739, for which the z-score was active: 2.11.

Turning to GAGACAUCCUCUUCACCAUTT against Olfr495, the z-score was inactive: -1.25.

As to GGAUCUUUCAAAGAGAGUUTT against Egfl8, the z-score is inactive: 1.51.

GGAUCACUGGGAAAACGGUTT against Nfatc2: the z-score was inactive: 1.66.

With CGGAAAGCACAAAAACACUTT against Clec2g, the z-score was inactive: 1.59.

Turning to GGGUACUGUUUUGUUAACUTT against Rbm18, the z-score was inactive: 0.547.

As for GGCCAGAGUAUCGAUGUUCTT against Slc25a14, the z-score was inactive: -0.566.

For the sequence GCAGCAUCUAAGAGUGGCGTT against Smtnl1, the z-score was inactive: 0.298.

On to GGACAGUUCCAUGAAUACCTT against Rab5b, for which the z-score was inactive: -0.655.

For the sequence GGUGAAACGGGAUGUUAACTT against Ppargc1b, the z-score was inactive: -0.102.

For CGACCAAGAUGUAAUACAUTT against Nudt8, the z-score was inactive: 0.474.

Regarding GGAUGUUAAAGCAAGUGUATT against Olfr1153, the z-score was inactive: 0.169.

Consider GGAGACCUUGAAGAAGAUUTT against Vav2, for which the z-score is inactive: 0.183.

Regarding GGUGAAAACGUGGUUCCAGTT against Bsx, the z-score is inactive: -0.0072.

In the case of GGCCUUGAAAUACUAUAAGTT against Ttc24, the z-score was inactive: -0.478.

For the sequence GCCGUACCGGAUUUUUUUCTT against Smyd3, the z-score was active: 4.

As for GGUUCAGAAGUUUGGGAGATT against Mrpl48, the z-score is inactive: 0.615.

As for GGAUUUGAUGGAAAUGUCATT against Dcaf10, the z-score was inactive: 0.636.

As to GGAAGAUGGGCGACUCUAUTT against Pkmyt1, the z-score is inactive: 0.176.

As to GGACAUCAUGUGCAUGGAATT against Fbxo38, the z-score is inactive: 1.29.

As for GGUAUACCAGAGGAAGAAGTT against Slc39a11, the z-score was inactive: 0.9.

GGAUCAAAAACACAUACUUTT against Adgre4: the z-score is active: 2.37.

Take GGUUGAAGUUGAAGUUUAATT against Top3a: the z-score was inactive: -0.451.
